Results from the supplement of paper PMC12067093, “Discovery and optimisation of a covalent ligand for TRIM25 and its application to targeted protein ubiquitination” (Chemical Science, 2025).
Some of the results follow.

Chains of the proteins cited; added tags and fusions are not shown. Lines headed by an entry give the natural chain unless they say otherwise; changes in a name come on top.
UniProt Q9Y2K7: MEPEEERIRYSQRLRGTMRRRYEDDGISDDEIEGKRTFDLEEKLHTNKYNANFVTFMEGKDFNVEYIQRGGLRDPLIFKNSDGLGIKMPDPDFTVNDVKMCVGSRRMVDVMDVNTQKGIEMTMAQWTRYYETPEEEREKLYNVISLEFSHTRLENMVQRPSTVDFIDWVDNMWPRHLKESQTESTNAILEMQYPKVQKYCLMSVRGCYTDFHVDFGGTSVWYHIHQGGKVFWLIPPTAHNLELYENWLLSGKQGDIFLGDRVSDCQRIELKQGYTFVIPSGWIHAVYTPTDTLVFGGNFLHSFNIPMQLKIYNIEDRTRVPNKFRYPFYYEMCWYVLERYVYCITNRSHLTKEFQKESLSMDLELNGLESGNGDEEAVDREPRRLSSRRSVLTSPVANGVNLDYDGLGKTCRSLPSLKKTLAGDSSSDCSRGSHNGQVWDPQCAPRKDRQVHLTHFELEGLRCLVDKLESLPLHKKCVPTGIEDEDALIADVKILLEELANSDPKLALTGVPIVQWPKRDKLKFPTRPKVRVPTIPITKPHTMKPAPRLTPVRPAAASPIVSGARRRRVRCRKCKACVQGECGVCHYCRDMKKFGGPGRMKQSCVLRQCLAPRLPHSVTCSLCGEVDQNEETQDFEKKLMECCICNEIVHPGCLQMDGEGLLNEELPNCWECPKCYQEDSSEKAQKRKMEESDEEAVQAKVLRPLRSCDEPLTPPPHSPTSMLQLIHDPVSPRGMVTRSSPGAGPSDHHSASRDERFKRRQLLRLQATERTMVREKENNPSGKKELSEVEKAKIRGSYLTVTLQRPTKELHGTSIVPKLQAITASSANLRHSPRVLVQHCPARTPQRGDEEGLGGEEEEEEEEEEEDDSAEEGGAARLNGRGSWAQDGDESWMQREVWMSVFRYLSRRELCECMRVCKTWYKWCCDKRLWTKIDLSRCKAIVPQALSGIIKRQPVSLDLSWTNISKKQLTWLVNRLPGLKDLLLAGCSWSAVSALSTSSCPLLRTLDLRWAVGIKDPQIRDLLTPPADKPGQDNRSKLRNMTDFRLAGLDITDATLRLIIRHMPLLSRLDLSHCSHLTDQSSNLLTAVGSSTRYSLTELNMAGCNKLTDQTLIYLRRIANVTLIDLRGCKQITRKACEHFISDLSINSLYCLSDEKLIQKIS
UniProt P26440: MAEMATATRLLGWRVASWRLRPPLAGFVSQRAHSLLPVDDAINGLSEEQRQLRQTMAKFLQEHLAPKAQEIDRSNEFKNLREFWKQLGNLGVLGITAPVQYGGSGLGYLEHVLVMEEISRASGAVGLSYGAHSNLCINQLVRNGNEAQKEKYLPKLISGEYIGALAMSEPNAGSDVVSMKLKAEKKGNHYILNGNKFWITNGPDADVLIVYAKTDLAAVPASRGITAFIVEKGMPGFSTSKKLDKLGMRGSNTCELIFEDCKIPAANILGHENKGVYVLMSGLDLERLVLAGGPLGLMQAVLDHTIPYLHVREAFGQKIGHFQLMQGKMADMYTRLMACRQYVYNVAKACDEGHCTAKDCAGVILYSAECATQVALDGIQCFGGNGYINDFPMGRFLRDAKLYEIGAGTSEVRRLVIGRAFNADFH
UniProt O75164: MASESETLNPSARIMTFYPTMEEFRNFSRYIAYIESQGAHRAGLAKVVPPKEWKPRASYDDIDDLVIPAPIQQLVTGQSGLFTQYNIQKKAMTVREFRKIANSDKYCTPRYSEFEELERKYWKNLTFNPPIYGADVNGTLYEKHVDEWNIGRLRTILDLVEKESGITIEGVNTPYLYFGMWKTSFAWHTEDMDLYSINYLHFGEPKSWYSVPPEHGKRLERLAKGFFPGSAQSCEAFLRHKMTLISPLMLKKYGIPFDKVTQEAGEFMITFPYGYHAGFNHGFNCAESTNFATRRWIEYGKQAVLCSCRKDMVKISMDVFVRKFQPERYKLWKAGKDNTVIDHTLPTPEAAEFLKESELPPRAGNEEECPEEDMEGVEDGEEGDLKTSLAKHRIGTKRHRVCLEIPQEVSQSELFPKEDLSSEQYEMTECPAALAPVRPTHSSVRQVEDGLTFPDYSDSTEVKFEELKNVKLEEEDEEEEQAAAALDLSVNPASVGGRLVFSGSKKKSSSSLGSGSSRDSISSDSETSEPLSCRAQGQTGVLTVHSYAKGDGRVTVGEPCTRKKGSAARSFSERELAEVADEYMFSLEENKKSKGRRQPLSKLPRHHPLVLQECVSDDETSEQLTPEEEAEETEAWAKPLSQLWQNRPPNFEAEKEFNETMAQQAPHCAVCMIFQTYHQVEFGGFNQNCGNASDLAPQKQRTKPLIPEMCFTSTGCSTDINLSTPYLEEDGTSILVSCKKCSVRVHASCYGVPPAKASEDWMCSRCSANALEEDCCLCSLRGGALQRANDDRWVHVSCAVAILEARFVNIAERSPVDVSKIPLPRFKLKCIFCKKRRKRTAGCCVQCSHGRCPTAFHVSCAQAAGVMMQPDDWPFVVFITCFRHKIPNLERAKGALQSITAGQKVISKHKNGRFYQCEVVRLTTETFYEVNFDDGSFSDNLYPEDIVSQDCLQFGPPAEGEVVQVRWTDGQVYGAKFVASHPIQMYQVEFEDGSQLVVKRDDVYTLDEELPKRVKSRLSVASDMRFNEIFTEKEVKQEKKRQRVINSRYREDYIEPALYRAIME
UniProt P28290: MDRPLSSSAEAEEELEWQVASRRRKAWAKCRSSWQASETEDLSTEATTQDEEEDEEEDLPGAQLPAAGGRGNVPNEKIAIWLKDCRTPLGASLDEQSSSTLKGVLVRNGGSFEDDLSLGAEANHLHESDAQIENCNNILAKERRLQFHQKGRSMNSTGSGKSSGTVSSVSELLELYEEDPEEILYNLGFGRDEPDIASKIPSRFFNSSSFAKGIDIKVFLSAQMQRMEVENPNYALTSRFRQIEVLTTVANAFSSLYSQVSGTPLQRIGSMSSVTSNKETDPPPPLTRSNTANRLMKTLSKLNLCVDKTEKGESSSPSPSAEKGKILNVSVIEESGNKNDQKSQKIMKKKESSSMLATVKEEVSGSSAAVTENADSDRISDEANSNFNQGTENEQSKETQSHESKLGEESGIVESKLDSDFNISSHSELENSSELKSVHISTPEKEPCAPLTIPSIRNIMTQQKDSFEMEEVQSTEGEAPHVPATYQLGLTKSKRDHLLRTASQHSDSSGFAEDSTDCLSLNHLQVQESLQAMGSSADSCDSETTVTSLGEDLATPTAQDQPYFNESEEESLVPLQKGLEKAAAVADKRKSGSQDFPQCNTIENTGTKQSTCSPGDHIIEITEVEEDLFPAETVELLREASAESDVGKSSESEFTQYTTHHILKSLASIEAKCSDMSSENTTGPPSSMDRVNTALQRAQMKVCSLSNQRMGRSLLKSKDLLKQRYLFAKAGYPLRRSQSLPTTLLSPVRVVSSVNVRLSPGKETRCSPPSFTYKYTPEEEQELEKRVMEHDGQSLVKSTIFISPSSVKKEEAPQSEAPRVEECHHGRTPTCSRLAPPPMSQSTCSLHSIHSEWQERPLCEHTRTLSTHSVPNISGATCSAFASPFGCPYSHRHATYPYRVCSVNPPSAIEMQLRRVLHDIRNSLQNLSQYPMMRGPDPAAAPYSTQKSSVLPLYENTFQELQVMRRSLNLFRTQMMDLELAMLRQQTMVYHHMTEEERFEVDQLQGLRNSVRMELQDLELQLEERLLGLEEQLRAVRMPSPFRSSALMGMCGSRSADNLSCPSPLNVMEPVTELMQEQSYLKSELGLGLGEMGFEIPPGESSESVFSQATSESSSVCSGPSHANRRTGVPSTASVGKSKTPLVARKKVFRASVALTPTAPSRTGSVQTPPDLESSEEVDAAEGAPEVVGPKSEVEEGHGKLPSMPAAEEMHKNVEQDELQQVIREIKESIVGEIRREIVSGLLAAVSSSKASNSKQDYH
UniProt Q7Z4H8: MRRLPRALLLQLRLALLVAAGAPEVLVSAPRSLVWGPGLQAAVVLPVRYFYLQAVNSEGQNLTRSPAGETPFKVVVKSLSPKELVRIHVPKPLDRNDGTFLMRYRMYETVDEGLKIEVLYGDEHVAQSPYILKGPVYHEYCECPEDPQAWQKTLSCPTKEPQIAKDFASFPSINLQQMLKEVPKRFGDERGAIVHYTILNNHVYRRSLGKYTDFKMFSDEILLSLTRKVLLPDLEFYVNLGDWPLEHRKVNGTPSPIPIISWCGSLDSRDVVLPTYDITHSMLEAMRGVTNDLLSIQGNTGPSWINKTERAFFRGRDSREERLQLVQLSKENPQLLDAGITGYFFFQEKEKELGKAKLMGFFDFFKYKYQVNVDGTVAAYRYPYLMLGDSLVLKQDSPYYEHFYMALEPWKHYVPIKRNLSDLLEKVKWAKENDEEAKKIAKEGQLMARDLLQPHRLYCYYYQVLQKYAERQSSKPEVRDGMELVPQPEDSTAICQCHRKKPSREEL
UniProt Q92830, whole entry, looked up: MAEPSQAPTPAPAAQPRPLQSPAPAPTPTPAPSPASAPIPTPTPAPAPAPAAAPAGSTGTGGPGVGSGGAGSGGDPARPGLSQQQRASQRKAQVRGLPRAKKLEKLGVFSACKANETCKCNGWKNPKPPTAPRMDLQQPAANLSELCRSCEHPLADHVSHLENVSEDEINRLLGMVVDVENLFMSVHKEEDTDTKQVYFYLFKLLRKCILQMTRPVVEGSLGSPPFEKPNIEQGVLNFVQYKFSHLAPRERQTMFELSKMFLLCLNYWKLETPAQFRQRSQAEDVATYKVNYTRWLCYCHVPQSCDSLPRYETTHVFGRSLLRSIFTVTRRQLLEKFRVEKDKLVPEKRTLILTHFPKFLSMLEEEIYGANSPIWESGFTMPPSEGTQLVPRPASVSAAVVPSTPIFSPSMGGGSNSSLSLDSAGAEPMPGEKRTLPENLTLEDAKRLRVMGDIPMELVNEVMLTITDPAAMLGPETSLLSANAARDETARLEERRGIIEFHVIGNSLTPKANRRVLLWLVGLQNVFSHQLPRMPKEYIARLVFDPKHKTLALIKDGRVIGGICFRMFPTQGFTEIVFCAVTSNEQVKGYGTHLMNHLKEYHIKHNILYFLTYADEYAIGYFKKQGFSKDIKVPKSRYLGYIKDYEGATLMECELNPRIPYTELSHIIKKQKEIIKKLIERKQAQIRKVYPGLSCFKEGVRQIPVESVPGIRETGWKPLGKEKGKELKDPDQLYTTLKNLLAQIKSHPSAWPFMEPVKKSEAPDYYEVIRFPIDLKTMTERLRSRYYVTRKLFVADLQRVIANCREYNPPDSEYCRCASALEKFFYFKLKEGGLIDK
UniProt Q15046, whole entry, looked up: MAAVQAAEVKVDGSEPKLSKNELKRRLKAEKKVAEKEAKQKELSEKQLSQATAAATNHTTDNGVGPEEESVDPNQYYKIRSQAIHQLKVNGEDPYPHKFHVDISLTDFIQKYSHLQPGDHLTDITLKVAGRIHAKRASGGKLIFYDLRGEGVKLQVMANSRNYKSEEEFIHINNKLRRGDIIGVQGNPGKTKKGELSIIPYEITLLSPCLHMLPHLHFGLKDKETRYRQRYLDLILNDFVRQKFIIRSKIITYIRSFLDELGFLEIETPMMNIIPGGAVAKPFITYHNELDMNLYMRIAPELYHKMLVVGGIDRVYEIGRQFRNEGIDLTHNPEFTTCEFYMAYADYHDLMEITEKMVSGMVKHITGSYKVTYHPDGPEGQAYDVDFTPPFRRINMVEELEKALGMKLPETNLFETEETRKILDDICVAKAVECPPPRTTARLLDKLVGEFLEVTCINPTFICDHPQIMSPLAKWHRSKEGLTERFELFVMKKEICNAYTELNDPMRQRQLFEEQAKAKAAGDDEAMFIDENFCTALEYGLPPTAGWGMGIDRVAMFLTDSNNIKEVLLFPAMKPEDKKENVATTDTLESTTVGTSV
UniProt Q9H7Z6: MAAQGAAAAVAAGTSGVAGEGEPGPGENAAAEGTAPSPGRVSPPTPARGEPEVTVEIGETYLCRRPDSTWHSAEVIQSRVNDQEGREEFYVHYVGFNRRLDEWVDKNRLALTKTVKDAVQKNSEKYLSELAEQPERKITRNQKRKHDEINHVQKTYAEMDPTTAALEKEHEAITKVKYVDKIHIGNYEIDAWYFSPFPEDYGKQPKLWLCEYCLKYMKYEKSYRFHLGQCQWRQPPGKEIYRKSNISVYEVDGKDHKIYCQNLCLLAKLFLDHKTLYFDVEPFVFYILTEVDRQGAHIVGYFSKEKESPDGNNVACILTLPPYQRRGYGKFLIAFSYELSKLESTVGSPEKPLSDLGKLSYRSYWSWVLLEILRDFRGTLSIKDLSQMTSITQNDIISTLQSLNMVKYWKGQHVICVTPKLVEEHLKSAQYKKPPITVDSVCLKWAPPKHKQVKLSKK

Compound: CC1Cc2ccccc2N1C(=O)C1CCCN(C1)C(=O)CCl (mixture of isomers) [TRIM25 ligand 11 (diastereomer mixture)]
Test: probe-labelled cysteine peptide fold change vs DMSO (competition) (log2 fold change); higher = less target engagement (more negative = stronger competition)
Conditions: THP-1, incubation time: 4 h
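Further: competitive chemoproteomic profiling in live THP-1 cells with an iodoacetamide desthiobiotin (IA-DTB) probe, comparing probe-labelled peptide intensities in compound-treated cells against DMSO-treated controls.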

Target	probe-labelled cysteine peptide fold change (10 µM)	probe-labelled cysteine peptide fold change (50 µM)
KIF11_P52732_740_CENIQK (UniProt P52732)	-0.075	-0.00613
KDM2A_Q9Y2K7_1104_YSLTELNMAGCNK (UniProt Q9Y2K7)	0.0922	0.239
KIF1BP_Q96EK5_371_AVQFGTGELCDAISAVEEK (UniProt Q96EK5)	0.0163	-0.0878
KCTD9_Q7L273_220_CQGLNFSGADLSR (UniProt Q7L273)	0.0726	0.0948
IVNS1ABP_Q9Y6Y0_52_AVLACCSPYLFEIFNSDSDPHGISHVK (UniProt Q9Y6Y0)	0.0337	0.201
KIF15_Q9NS87_1284_EMECLR (UniProt Q9NS87)	-0.0637	0.00528
KIDINS220_Q9ULH0_779_LVVIIDGLDACEQDK (UniProt Q9ULH0)	-0.174	0.0538
KHSRP_Q92945_379_CEHAAR (UniProt Q92945)	-0.0711	0.0724
IVD_P26440_350+355_ACDEGHCTAK (UniProt P26440)	0.214	0.227
IVD_P26440_261_GSNTCELIFEDCK (UniProt P26440)	0.184	0.144
KDSR_Q06136_245_LISETTSVCKPEQVAK (UniProt Q06136)	-0.0803	-0.148
ITPR1_Q14643_253_FLTCDEHR (UniProt Q14643)	0.115	0.0628
ITPKB_P27987_873_CHEVIGSSLLFIHDKK (UniProt P27987)	-0.0355	0.0246
JMJD1C_Q15652_1871_CGFVVCLDCYK (UniProt Q15652)	0.135	0.228
KDM4A_O75164_847_TAGCCVQCSHGR (UniProt O75164)	0.268	0.285
KDM3B_Q7LBC6_295_SASDSGCDPASKK (UniProt Q7LBC6)	-0.135	-0.229
KIF15_Q9NS87_1062_DMLCEDLAHATEQLNMLTEASK (UniProt Q9NS87)	0.371	-0.0327
KDM2A_Q9Y2K7_463_CLVDKLESLPLHKK (UniProt Q9Y2K7)	-0.336	-0.186
IVD_P26440_254_GSNTCELIFEDCK (UniProt P26440)	0.241	0.23

Target	probe-labelled cysteine peptide fold change (10 µM)	probe-labelled cysteine peptide fold change (50 µM)
ITPR1_Q14643_326_HLATGHYLAAEVDPDFEEECLEFQPSVDPDQDASR (UniProt Q14643)	-0.0727	-0.462
ITPRID2_P28290_448_EPCAPLTIPSIR (UniProt P28290)	-0.0408	-0.0961
KDM3A_Q9Y4C1_1009_EFGEQEVDLVNCR (UniProt Q9Y4C1)	0.112	-0.0279
KDM4A_O75164_430_EDLSSEQYEMTECPAALAPVRPTHSSVR (UniProt O75164)	-0.0418	
KDM3B_Q7LBC6_72_AMSGAVPQDLAIFVEFDGCNWK (UniProt Q7LBC6)	0.115	-0.11
KDELC2_Q7Z4H8_495+497_DGMELVPQPEDSTAICQCHR (UniProt Q7Z4H8)	0.0709	-0.171
KDELC1_Q6UW63_153_EMNCPETIAQIQR (UniProt Q6UW63)	-0.0583	0.0741
KDM2B_Q8NHM5_651_QCIAPVLPHTAVCLVCGEAGKEDTVEEEEGK (UniProt Q8NHM5)	-0.06	-0.275
KIF13B_Q9NQT8_26_CVVDVDANK (UniProt Q9NQT8)	-0.0423	0.0732
ITPRID2_P28290_878_TLSTHSVPNISGATCSAFASPFGCPYSHR (UniProt P28290)	0.109	-0.235
ITPR1_Q14643_1197_LCVQESASVR (UniProt Q14643)	0.125	0.213
KAT2A_Q92830_695_VYPGLSCFK (UniProt Q92830)	0.0125	0.0252
JMJD6_Q6NYC1_207_RWCLFPTSTPR (UniProt Q6NYC1)	-0.0707	0.15
ITPR3_Q14573_1387_CTSLLPLEDVVSVVTHEDCITEVK (UniProt Q14573)	0.242	0.194
KARS_Q15046_209_GELSIIPYEITLLSPCLHMLPHLHFGLK (UniProt Q15046)	-0.0461	-0.178
KAT8_Q9H7Z6_416_GQHVICVTPK (UniProt Q9H7Z6)	0.115	0.085
ITPR2_Q14571_379_ADCLVPR (UniProt Q14571)	-0.149	-0.144
KARS_Q15046_496_EICNAYTELNDPMR (UniProt Q15046)	-0.184	-0.0552
ITPA_Q9BY32_33_KLEEVVQILGDKFPCTLVAQK (UniProt Q9BY32)	-0.34	-0.182

In another format: results already given
Target | probe-labelled cysteine peptide fold change (10 µM) | probe-labelled cysteine peptide fold change (50 µM)
KDELC2_Q7Z4H8_495+497_DGMELVPQPEDSTAICQCHR (UniProt Q7Z4H8) | 0.0709 | -0.171
KDELC1_Q6UW63_153_EMNCPETIAQIQR (UniProt Q6UW63) | -0.0583 | 0.0741
KDM2B_Q8NHM5_651_QCIAPVLPHTAVCLVCGEAGKEDTVEEEEGK (UniProt Q8NHM5) | -0.06 | -0.275
KIF13B_Q9NQT8_26_CVVDVDANK (UniProt Q9NQT8) | -0.0423 | 0.0732
ITPRID2_P28290_878_TLSTHSVPNISGATCSAFASPFGCPYSHR (UniProt P28290) | 0.109 | -0.235
ITPR1_Q14643_1197_LCVQESASVR (UniProt Q14643) | 0.125 | 0.213
KAT2A_Q92830_695_VYPGLSCFK (UniProt Q92830) | 0.0125 | 0.0252
JMJD6_Q6NYC1_207_RWCLFPTSTPR (UniProt Q6NYC1) | -0.0707 | 0.15
ITPR3_Q14573_1387_CTSLLPLEDVVSVVTHEDCITEVK (UniProt Q14573) | 0.242 | 0.194
KARS_Q15046_209_GELSIIPYEITLLSPCLHMLPHLHFGLK (UniProt Q15046) | -0.0461 | -0.178
KAT8_Q9H7Z6_416_GQHVICVTPK (UniProt Q9H7Z6) | 0.115 | 0.085
